In paper PMC9044668:
These are yes or no findings as the source states them, for the method shown. In cells and extracts the contact can be indirect. Some binding calls cover weakened binding; strength is not graded here.

By UniProt entry, the sequences of proteins in these tests, tags left out. Residues count along the entry.
UniProt P27540: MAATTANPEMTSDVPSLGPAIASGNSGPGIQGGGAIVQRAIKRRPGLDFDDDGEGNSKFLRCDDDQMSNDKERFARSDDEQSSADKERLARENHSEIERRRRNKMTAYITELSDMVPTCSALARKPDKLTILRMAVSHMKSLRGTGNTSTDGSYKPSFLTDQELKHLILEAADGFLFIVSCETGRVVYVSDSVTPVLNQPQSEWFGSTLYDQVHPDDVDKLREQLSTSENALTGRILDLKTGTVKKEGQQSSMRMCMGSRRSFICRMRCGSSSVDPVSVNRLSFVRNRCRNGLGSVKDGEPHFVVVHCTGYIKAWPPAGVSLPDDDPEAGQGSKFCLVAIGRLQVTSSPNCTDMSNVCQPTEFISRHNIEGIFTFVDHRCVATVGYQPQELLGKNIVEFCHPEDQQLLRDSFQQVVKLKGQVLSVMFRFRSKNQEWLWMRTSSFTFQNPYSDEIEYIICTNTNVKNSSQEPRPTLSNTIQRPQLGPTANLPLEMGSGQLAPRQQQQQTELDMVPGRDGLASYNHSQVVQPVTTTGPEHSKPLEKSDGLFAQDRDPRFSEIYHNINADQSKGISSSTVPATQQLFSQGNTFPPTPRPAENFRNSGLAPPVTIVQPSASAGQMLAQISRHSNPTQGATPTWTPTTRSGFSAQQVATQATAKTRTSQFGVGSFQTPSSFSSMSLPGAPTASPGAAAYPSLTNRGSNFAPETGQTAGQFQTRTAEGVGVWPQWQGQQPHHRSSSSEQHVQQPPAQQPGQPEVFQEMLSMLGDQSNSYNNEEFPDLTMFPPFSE
UniProt P35869, residues 11-848: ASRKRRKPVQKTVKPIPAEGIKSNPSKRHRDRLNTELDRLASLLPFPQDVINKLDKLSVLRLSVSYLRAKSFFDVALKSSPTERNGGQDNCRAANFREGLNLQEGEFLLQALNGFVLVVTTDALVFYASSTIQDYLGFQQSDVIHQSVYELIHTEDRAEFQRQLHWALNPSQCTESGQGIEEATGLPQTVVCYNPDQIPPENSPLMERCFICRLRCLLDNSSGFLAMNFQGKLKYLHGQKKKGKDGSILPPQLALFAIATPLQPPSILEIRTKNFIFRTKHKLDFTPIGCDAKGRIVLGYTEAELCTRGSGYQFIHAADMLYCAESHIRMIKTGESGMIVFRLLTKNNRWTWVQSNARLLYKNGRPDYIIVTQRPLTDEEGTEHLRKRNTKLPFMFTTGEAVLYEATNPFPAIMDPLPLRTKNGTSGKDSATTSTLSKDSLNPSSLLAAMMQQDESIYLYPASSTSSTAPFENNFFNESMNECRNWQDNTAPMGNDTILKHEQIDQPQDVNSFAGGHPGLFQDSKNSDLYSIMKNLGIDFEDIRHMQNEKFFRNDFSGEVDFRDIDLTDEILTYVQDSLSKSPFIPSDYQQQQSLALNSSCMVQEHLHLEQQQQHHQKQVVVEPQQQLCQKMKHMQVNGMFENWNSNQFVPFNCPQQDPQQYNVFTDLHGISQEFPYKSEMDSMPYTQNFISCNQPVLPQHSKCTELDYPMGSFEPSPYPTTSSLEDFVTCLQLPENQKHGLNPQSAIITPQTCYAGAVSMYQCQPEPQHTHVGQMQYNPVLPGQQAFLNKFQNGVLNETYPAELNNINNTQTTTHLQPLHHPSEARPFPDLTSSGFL

Target: ARNT fused to DsRed-Monomer (plasmid pDsRed-Monomer-ARNT) (human) (UniProt P27540)
Assay: FRET or BRET; A549 cells co-transfected with pAcGFP1-AhR (donor) and pDsRed-Monomer-ARNT (acceptor); 24 h later treated with 0, 2, 4, 8 μM BaP for 24 h, or with 8 μM BaP with or without 300 μM CoCl2; high-content fluorescence imaging

binding: binds
Substance: AhR fused to AcGFP1 (plasmid pAcGFP1-AhR) (from UniProt P35869 11-848) (receptor)
